# According to the supplement of paper PMC11732987, “Enantioselective OTUD7B fragment discovery through chemoproteomics screening and high-throughput optimisation” (Communications Chemistry, 2025):
# Protein sequences, listed by entry. Tags and fused reporters are not part of them. Lines headed by an entry give the natural chain unless they say otherwise; changes in a name come on top. Residues count along the entry.
# UniProt Q9UMX1: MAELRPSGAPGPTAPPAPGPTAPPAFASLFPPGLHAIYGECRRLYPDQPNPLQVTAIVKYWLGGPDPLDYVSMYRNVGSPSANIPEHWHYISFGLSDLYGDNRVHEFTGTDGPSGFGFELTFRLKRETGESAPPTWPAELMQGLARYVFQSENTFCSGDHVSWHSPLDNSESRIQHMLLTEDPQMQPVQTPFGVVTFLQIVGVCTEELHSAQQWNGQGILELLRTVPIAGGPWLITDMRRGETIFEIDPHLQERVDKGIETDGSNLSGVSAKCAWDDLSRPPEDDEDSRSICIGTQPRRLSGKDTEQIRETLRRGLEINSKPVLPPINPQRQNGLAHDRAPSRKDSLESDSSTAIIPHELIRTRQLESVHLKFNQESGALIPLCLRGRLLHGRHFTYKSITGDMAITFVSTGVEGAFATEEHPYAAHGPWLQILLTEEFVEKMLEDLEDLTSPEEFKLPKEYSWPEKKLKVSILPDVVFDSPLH
# UniProt Q8N1F8: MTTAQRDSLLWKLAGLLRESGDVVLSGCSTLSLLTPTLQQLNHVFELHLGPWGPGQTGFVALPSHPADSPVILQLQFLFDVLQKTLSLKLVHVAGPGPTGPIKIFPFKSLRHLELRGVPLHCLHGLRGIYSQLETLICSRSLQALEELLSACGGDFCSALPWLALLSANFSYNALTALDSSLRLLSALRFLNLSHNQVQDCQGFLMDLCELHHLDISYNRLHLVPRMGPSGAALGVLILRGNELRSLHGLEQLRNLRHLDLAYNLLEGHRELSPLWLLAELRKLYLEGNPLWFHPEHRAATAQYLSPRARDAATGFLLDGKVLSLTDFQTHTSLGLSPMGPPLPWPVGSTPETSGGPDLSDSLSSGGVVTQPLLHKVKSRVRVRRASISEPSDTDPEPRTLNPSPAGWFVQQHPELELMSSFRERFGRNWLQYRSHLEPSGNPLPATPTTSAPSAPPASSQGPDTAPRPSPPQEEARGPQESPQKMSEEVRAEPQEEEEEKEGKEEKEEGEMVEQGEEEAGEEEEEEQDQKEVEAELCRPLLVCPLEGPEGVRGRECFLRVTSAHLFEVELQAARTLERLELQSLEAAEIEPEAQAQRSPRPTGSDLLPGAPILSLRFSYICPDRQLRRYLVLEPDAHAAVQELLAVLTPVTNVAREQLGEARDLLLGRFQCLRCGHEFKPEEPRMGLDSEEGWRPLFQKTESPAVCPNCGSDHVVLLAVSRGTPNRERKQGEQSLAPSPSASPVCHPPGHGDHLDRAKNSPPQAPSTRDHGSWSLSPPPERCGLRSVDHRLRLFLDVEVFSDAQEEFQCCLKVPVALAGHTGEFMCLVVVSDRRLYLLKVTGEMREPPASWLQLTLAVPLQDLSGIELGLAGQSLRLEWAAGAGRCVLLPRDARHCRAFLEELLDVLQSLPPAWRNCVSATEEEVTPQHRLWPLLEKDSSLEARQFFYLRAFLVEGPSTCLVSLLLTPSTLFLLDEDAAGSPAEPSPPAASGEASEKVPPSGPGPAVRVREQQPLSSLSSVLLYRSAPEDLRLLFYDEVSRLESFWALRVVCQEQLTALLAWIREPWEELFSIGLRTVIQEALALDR
# UniProt Q6NVH7: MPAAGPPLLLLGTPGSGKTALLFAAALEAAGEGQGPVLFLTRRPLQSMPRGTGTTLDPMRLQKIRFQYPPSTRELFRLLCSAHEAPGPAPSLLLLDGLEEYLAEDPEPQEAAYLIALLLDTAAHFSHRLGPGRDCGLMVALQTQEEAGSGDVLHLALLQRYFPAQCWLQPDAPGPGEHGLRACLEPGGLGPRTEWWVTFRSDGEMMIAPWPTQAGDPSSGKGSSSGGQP
# UniProt Q8WXH0, 2250-2270: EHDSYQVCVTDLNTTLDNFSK
# UniProt P49458: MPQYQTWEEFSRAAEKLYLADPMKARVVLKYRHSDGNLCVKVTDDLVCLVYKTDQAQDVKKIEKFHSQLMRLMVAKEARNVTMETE
# UniProt Q92797: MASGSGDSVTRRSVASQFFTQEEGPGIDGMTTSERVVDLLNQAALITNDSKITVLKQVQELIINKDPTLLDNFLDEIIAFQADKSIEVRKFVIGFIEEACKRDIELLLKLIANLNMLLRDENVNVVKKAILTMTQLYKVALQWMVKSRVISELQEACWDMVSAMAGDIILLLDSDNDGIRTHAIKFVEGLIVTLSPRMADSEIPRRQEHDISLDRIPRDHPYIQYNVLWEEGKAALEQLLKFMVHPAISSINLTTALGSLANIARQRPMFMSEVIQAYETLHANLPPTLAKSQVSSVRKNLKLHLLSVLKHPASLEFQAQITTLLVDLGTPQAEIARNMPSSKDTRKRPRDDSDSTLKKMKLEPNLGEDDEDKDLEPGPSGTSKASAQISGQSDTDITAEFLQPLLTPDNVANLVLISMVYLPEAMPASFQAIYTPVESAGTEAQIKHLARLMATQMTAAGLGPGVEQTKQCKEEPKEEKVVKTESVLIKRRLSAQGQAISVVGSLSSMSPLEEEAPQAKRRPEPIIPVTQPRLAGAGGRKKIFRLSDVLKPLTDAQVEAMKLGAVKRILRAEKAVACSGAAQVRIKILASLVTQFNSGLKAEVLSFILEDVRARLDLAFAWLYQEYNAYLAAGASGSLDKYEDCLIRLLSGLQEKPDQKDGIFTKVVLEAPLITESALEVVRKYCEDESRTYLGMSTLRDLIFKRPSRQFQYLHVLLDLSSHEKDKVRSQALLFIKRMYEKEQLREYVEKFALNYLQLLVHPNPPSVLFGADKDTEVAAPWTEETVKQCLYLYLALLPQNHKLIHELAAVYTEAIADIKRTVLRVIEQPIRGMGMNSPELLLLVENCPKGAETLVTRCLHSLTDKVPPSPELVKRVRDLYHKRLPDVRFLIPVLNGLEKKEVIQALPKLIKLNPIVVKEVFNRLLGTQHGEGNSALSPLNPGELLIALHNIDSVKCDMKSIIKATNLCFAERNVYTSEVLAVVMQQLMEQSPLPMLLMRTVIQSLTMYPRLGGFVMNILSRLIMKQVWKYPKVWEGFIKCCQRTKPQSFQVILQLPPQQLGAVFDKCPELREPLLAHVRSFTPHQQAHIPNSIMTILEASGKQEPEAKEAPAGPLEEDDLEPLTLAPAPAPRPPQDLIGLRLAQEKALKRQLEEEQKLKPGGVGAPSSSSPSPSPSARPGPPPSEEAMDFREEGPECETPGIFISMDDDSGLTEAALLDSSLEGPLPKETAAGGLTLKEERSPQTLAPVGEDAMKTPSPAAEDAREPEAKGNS
# UniProt Q8IX01: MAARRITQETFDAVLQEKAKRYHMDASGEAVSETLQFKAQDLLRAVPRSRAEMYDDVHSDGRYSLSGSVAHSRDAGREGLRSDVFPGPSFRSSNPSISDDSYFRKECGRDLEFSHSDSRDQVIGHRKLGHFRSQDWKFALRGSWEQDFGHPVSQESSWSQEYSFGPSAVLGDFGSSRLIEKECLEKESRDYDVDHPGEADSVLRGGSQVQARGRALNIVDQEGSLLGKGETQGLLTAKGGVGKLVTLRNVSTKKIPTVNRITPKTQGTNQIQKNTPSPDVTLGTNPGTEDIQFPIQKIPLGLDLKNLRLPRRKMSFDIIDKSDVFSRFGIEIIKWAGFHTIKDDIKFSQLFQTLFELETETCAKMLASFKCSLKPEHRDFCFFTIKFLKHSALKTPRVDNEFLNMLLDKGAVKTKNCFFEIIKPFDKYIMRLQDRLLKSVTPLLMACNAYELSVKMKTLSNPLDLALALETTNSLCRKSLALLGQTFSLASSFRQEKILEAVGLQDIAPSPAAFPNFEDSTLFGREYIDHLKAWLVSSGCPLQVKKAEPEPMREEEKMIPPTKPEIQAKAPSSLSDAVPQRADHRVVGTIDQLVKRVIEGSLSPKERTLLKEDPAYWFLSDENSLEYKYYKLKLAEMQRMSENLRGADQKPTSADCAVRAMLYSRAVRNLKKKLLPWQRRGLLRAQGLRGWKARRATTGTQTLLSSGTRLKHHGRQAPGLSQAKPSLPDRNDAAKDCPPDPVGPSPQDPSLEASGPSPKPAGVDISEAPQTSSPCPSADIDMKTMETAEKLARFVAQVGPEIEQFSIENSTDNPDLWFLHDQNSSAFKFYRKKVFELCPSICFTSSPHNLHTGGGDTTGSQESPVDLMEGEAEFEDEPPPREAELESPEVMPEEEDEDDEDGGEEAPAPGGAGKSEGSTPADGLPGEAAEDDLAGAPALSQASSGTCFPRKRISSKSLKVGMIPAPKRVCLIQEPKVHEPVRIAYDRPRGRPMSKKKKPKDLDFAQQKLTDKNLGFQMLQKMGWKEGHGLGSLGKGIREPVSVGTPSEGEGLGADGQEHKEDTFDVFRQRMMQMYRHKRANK
# UniProt Q6ZWJ1: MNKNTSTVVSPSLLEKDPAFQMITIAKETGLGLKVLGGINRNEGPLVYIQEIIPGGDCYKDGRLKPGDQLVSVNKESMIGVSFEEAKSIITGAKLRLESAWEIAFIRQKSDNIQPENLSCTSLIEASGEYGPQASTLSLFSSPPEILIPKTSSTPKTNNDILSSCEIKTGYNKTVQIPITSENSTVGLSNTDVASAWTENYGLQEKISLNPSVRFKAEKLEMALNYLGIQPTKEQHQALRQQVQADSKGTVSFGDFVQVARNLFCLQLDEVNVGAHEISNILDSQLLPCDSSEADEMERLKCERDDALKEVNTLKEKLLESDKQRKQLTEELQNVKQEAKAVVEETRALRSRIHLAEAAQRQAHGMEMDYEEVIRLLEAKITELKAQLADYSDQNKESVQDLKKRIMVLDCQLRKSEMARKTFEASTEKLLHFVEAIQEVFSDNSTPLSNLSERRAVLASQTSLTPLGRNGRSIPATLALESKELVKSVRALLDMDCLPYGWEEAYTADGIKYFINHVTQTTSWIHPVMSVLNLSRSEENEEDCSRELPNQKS
# UniProt Q76I76: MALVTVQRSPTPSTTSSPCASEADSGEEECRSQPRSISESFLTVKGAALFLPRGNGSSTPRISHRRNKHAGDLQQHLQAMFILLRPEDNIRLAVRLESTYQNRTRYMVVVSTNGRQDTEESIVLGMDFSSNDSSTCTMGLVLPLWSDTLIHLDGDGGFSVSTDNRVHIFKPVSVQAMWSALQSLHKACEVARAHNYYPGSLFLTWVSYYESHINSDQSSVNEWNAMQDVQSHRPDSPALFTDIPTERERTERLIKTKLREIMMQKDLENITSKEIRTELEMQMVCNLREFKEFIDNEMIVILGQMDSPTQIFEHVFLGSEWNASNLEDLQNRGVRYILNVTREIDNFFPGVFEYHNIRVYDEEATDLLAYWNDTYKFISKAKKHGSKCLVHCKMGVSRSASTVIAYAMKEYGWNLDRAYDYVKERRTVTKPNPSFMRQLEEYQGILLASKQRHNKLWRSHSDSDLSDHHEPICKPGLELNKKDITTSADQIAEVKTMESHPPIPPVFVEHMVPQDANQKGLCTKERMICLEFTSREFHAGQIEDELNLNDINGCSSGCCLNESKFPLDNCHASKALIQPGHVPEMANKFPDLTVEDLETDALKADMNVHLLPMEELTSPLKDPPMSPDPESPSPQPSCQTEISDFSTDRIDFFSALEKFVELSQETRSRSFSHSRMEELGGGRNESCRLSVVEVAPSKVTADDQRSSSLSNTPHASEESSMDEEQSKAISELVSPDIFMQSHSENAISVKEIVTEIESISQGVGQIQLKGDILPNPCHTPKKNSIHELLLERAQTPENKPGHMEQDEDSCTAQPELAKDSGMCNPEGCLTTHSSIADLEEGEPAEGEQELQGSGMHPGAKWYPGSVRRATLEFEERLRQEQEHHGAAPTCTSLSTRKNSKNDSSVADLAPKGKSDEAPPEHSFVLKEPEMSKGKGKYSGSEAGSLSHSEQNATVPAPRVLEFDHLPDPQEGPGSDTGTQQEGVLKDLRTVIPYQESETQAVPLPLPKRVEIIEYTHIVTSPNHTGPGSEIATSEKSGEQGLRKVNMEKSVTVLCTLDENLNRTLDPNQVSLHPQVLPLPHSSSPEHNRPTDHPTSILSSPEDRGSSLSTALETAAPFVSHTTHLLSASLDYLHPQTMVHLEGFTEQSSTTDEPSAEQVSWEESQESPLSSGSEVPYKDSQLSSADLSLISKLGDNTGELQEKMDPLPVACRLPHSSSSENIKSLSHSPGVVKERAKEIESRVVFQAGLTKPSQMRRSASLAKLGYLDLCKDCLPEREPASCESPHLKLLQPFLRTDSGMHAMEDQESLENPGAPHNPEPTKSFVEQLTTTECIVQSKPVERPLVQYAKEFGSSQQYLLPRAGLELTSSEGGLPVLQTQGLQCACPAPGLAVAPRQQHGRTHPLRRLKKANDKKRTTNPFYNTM
# UniProt Q9BUA3, 49-68: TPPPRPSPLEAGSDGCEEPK
# UniProt O14662: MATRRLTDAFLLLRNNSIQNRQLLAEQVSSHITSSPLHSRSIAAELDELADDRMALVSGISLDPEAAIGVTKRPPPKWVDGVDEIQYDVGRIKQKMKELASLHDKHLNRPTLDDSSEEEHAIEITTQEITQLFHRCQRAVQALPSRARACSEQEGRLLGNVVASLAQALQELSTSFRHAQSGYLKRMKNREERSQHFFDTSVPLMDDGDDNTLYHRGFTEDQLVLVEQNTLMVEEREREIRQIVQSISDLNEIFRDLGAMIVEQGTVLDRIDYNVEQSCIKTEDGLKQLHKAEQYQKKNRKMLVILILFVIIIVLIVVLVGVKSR
# Some of the results follow. The data scatter; read single values as rough.
# Assays:
# [1] = compound: ClCC(=O)N[C@@H]1CCCc2ccccc12; test: log2 mean competition ratio of IA-DTB cysteine labelling (DMSO/compound) (log2 ratio); higher = stronger cysteine engagement by compound; details: treatment time: 4 h, cell line lysate: HEK293T
# Experimental: (§1)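 IA-DTB competitive cysteine chemoproteomics in HEK293T RIPA lysate. Lysates were treated with compound 29 or 30 at 50 or 200 µM for 4 h, then IA-DTB (500 µM, 1 h), trypsin-digested, NeutrAvidin-enriched and analysed by diaPASEF. Competition ratio = intensity DMSO / intensity compound (n=4 treated, n=64 DMSO); binding: mean log2 CR ≥ 1 and p ≤ 0.05 plus QC filters. Target is the cysteine site.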
# [2] = compound: ClCC(=O)N[C@H]1CCCc2ccccc12; test: as above; details: treatment time: 4 h, cell line lysate: HEK293T
# Experimental: as §1
Target,log2 mean competition ratio ([1]; 50 µM),log2 mean competition ratio ([1]; 200 µM),log2 mean competition ratio ([2]; 50 µM),log2 mean competition ratio ([2]; 200 µM)
SVIL C671 (UniProt O95425),0.0675,0.144,-0.22,-0.0706
SUFU C292 (UniProt Q9UMX1),-0.106,-0.0778,0.323,-0.036
STX5 C57 (UniProt Q13190),0.211,0.151,0.849,0.585
SRBD1 C463 (UniProt Q8N5C6),0.0121,-0.0695,-0.348,-0.00406
STK11IP C138 (UniProt Q8N1F8),0.0828,0.505,0.195,0.449
STRN4 C562 (UniProt Q9NRL3),-0.126,0.146,-0.25,0.251
SWSAP1 C183 (UniProt Q6NVH7),-0.0417,0.0271,-0.167,0.000639
STRAP C305 (UniProt Q9Y3F4),-0.0818,-0.172,-0.584,-0.153
SYNE2 C2480 (UniProt Q8WXH0),0.0554,0.0955,0.0696,-0.00476
SYNE2 C2257 (UniProt Q8WXH0),0.112,-0.206,-0.177,-0.134
STK11IP C622 (UniProt Q8N1F8),-0.0383,0.065,-0.142,0.0921
SRP9 C48 (UniProt P49458),0.122,-0.393,0.0755,-0.177
SPOUT1 C239 (UniProt Q5T280),-0.0658,0.208,-0.151,0.149
SPTBN2 C1140 (UniProt O15020),0.225,-0.156,0.236,-0.0389
SRCIN1 C614 (UniProt Q9C0H9),-0.0909,0.273,0.0307,-0.0605
STAG2 C869 (UniProt Q8N3U4),0.13,-0.2,0.0426,-0.233
SYMPK C578 (UniProt Q92797),0.0731,0.0121,-0.0606,-0.0407
STAU2 C140 (UniProt Q9NUL3),0.52,-0.36,0.524,-0.27
SUGP2 C970 (UniProt Q8IX01),-0.0502,0.246,0.00119,0.204
SYMPK C686 (UniProt Q92797),-0.149,0.149,-0.319,0.105
SYNE2 C6739 (UniProt Q8WXH0),0.0179,-0.0294,-0.0117,0.112
SYNE2 C1151 (UniProt Q8WXH0),-0.225,0.0546,-0.0447,-0.112
STRN4 C713 (UniProt Q9NRL3),-0.112,0.0707,0.0462,-0.0395

# Some entries already given, limited to log2 mean competition ratio ([2]; 50 µM):
Target | log2 mean competition ratio ([2]; 50 µM)
SYMPK C686 (UniProt Q92797) | -0.319
SYNE2 C6739 (UniProt Q8WXH0) | -0.0117

# Remaining list, next part:

Target,log2 mean competition ratio ([1]; 50 µM),log2 mean competition ratio ([1]; 200 µM),log2 mean competition ratio ([2]; 50 µM),log2 mean competition ratio ([2]; 200 µM)
SPRY1 C305 (UniProt O43609),0.0534,0.224,0.249,0.229
SYMPK C969 (UniProt Q92797),-0.0486,-0.0756,-0.0175,-0.00784
STXBP4 C411 (UniProt Q6ZWJ1),0.237,0.271,-0.249,0.1
STRBP C142 (UniProt Q96SI9),-0.0313,0.154,0.233,-0.245
SPTBN1 C183 (UniProt Q01082),-0.0641,-0.29,0.122,-0.0659
SPATA5 C291 (UniProt Q8NB90),0.357,0.0971,0.625,0.254
STK39 C525 (UniProt Q9UEW8),-0.058,-0.215,0.115,-0.219
SQSTM1 C331 (UniProt Q13501),-0.0555,0.117,0.3,-0.144
SPTBN1 C112 (UniProt Q01082),0.477,0.0486,0.662,-0.0652
SYNE1 C8703 (UniProt Q8NF91),0.19,-0.381,0.631,-0.202
SSH2 C1210 (UniProt Q76I76),-0.0658,-0.0375,0.104,0.0719
SRP68 C173 (UniProt Q9UHB9),0.0451,0.214,-0.022,0.208
SYNJ2 C708 (UniProt O15056),-0.222,-0.177,-0.225,-0.165
SRSF9 C80 (UniProt Q13242),-0.0744,0.161,-0.0151,0.213
SPICE1 C453 (UniProt Q8N0Z3),-0.0314,0.111,0.141,0.0237
SPINDOC C64 (UniProt Q9BUA3),-0.124,0.215,-1.05,0.09
SPATS2 C61 (UniProt Q86XZ4),0.324,0.309,0.261,0.144
SPTLC2 C188 (UniProt O15270),-0.0457,0.00195,-0.0691,-0.0602
STX16 C279 (UniProt O14662),-0.0686,-0.156,-0.098,-0.261
SYNE2 C5348 (UniProt Q8WXH0),0.111,-0.173,-0.346,0.0741
SPAST C171 (UniProt Q9UBP0),-0.193,1.74,0.0709,0.838
SUGP2 C371 (UniProt Q8IX01),0.481,-0.386,0.487,-0.29
